No constants are given. Whether binding was seen depends on the method and setting. Binding seen in cells or lysates may run through a third protein. A yes stands for co-enrichment or nearness to the bait. Other partners may have been found.
Target: Dynein light chain type 1 (DYNLT1) (human (endogenous in iPSC-aCMs)) (UniProt P63172)
Assay: affinity purification with mass spectrometry; IP of endogenous DYNLT1 from iPSC-aCM lysate with anti-DYNLT1 antibody or control IgG, magnetic beads, SDS-PAGE, in-gel digestion, LC-MS/MS

Amino acid sequences for entries named in this document (tags omitted). A change or cut given only in a name is not applied to a line headed by its entry.
UniProt P63172: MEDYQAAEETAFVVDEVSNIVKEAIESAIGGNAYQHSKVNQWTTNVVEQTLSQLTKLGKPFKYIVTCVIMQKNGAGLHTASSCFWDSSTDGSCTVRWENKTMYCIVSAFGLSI
UniProt Q9UM00: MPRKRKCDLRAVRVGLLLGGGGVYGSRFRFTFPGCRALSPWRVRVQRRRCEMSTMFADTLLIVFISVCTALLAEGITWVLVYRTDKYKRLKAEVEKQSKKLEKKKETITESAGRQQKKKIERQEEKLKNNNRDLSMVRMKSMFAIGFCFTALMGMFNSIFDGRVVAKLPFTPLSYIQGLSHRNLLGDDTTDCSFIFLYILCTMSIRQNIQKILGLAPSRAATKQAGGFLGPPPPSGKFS

binding: binds
Substance: TMCO1 (from UniProt Q9UM00)
